The experiment deals with BDF1 mice, P388 leukemia ip, median survival T/C. Kind of experiment: NCI In Vivo Anticancer Drug Screen. Data for tumor model P388 Leukemia (intraperitoneal) in B6D2F1 (BDF1) mice. To be noted: T/C endpoint: median survival time, higher T/C = longer survival. The procedure, abridged: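 Read-out is survival of treated animals expressed relative to the vehicle group, as a T/C ratio.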

The mark [1] stands for this setting: dose: 200.0 mg/kg/injection, schedule: Q04DX003 (ip), vehicle: saline with Tween-80.
[2] abbreviates: dose: 400.0 mg/kg/injection, schedule: Q04DX003 (ip), vehicle: saline with Tween-80.
Where [3] appears, read: dose: 50.0 mg/kg/injection, schedule: Q01DX009 (ip), vehicle: Klucel (hydroxypropylcellulose) (HPC).
Setting [4] is: dose: 100.0 mg/kg/injection, schedule: Q01DX009 (ip), vehicle: Klucel (hydroxypropylcellulose) (HPC).
Setting [5] is: dose: 100.0 mg/kg/injection, schedule: Q04DX003 (ip), vehicle: saline with Tween-80.
Setting [6] is: dose: 12.5 mg/kg/injection, schedule: Q01DX009 (ip), vehicle: Klucel (hydroxypropylcellulose) (HPC).
[7] abbreviates: dose: 200.0 mg/kg/injection, schedule: Q01DX009 (ip), vehicle: saline with Tween-80.

Among the data in PubChem BioAssay AID328 (DTP/NCI, 2004) are T/C and survivor count values, retold here.

The list is a part of this screen's results and no random one: it gathers tests that were run many times, whatever their T/C, doses with no T/C, and many T/C values between a quarter and a half above the control. Further doses and runs are listed elsewhere. T/C gives the treated animals as a percentage of the vehicle group. Some entries give survivors of the animals treated and no T/C: the source files T/C as zero there, which appears to mark a toxic dose or a test without result, not a measured value. Some survivor counts are full or nearly so, which does not show that the dose was tolerated: survival well below the control is almost never listed, so the zero probably covers shortened survival too. Survivors were counted at the toxicity check, usually on the fifth day, unless a day is given; later deaths do not show. Schedules are NCI's codes, taken here to give the interval after Q, in days (D) or hours (H), and the number of doses after X. Some entries were tested several times; the values are given in rising order. Where survival is the endpoint, this PubChem deposit counts one and a half times the control or more as active, and values a quarter to a half above the control carry no call in these data; other NCI protocols may use other cut-offs. Some T/C values carry the count of animals alive at the toxicity check (mostly the fifth day); without a count, all were alive then.

Regarding `CCSc1ncc(Br)c(Sc2nc(N)nc3nc[nH]c23)n1`, the T/C was 137 % of control (dose: 16.5 mg/kg/injection, schedule: Q04DX003 (ip), vehicle: saline with Tween-80); 141 % of control (dose: 25.0 mg/kg/injection, schedule: Q04DX003 (ip), vehicle: saline with Tween-80); 141 % of control (dose: 37.5 mg/kg/injection, schedule: Q04DX003 (ip), vehicle: saline with Tween-80). Further, the survivor count is recorded as 6 of 6 under setting [1] and 5 of 6 under setting [2].
Turning to `COc1ccc(C(SCC(N)C(=O)O)(c2ccccc2)c2ccc(OC)cc2)cc1` (centres undefined), the T/C reads like this: (dose: 4.6 mg/kg/injection, schedule: Q01DX009 (ip), vehicle: Klucel (hydroxypropylcellulose) (HPC)) 128 % of control; (dose: 16.0 mg/kg/injection, schedule: Q04DX003 (ip), vehicle: Klucel (hydroxypropylcellulose) (HPC)) 145 % of control. Further, the survivor count is, setting by setting: under setting [3], 3 of 6; under setting [4], 1 of 6; (dose: 150.0 mg/kg/injection, schedule: Q04DX003 (ip), vehicle: Klucel (hydroxypropylcellulose) (HPC)) 5 of 6; (dose: 225.0 mg/kg/injection, schedule: Q04DX003 (ip), vehicle: Klucel (hydroxypropylcellulose) (HPC)) 6 of 6; (dose: 335.0 mg/kg/injection, schedule: Q04DX003 (ip), vehicle: Klucel (hydroxypropylcellulose) (HPC)) 1 of 6.
Turning to `O=C1/C(=N/O)Cc2ccccc21`, the T/C is, setting by setting: (dose: 0.4 mg/kg/injection, schedule: Q01DX009 (ip), vehicle: water, evaluated on day 20) 148 % of control; (dose: 0.4 mg/kg/injection, schedule: Q01DX009 (ip), vehicle: water, evaluated on day 21) 134 % of control; (dose: 0.8 mg/kg/injection, schedule: Q01DX009 (ip), vehicle: water) 125 % of control [5 of 6 alive]; (dose: 1.2 mg/kg/injection, schedule: Q01DX009 (ip), vehicle: water) 125 % of control.
As to `CCC[CH2][Sn]([CH2]CCC)[CH2]CCC.CCC[CH2][Sn]([CH2]CCC)[CH2]CCC`, the survivor count was 3 of 6 (dose: 30.0 mg/kg/injection, schedule: Q01DX009 (ip), vehicle: saline with Tween-80); 0 of 6 (dose: 44.0 mg/kg/injection, schedule: Q01DX009 (ip), vehicle: saline with Tween-80); 1 of 6 and 5 of 6 (dose: 44.0 mg/kg/injection, schedule: Q04DX003 (ip), vehicle: saline with Tween-80); 3 of 6 under setting [3]; 0 of 6 (dose: 67.0 mg/kg/injection, schedule: Q01DX009 (ip), vehicle: saline with Tween-80); 2 of 6 and 6 of 6 (dose: 67.0 mg/kg/injection, schedule: Q04DX003 (ip), vehicle: saline with Tween-80). The survivor count by setting is: under setting [4], 0 of 6; under setting [5], 2 of 6 and 3 of 6; (dose: 150.0 mg/kg/injection, schedule: Q04DX003 (ip), vehicle: saline with Tween-80) 0 of 6; under setting [1], 2 of 6; under setting [2], 0 of 6. Besides, the T/C under setting [5] is 131 % of control.
Take `C[C@]12CC[C@H]3[C@@H](CCC4=C[C@@H](OC5OCC(OC6OC(CO)C(O)C(O)C6O)C(O)C5O)CC[C@@]43C=O)[C@@]1(O)CCC2C1=CC(=O)OC1` (some centres undefined): the T/C (dose: 1.25 mg/kg/injection, schedule: Q01DX009 (ip), vehicle: saline) is 133 % of control.
Take `O=C1NC2(CCCCC2)C(=O)N1CCN(CCCl)CCCl`: the survivor count (dose: 25.0 mg/kg/injection, schedule: Q01DX009 (ip), vehicle: saline) is on record as 2 of 6.
For the compound `COC1C(C)OC(OC2CC(C)(O)Cc3cc4c(c(O)c32)C(=O)c2c(O)cc3c(c2C4=O)OC2OC3(C)C(O)C(N(C)C)C2O)C(OC)C1(C)OC` (centres undefined), the T/C is, setting by setting: (dose: 2.5 mg/kg/injection, schedule: Q01DX009 (ip), vehicle: other) 129 % of control; (dose: 12.0 mg/kg/injection, schedule: Q04DX003 (ip), vehicle: water) 129 % of control.
Take `CCOC(=O)CN1C(=O)C(Cl)=C(Cl)C1=O`: the survivor count is, setting by setting: under setting [6], 3 of 6; (dose: 45.0 mg/kg/injection, schedule: Q04DX003 (ip), vehicle: Klucel (hydroxypropylcellulose) (HPC)) 3 of 6; (dose: 65.0 mg/kg/injection, schedule: Q04DX003 (ip), vehicle: Klucel (hydroxypropylcellulose) (HPC)) 0 of 6.
`NC(=O)NN=C1CCC(c2ccccc2)CC1` (centres undefined): under setting [7], the survivor count is given as 1 of 6.
For the compound `CN(CCCl)Cc1ccccc1`, the T/C reads like this: (dose: 50.0 mg/kg/injection, schedule: Q01DX009 (ip), vehicle: saline) 145 % of control; (dose: 100.0 mg/kg/injection, schedule: Q04DX003 (ip), vehicle: saline) 147 [5 of 6 alive], 155, 159, 270 % of control. The survivor count by setting is: (dose: 100.0 mg/kg/injection, schedule: Q01DX009 (ip), vehicle: saline) 1 of 6; (dose: 150.0 mg/kg/injection, schedule: Q04DX003 (ip), vehicle: saline) 4 of 6; (dose: 200.0 mg/kg/injection, schedule: Q04DX003 (ip), vehicle: saline) 2 of 6 and 4 of 6.
As for `CCCCNC(C)(C)COC(=O)/C=C/c1ccc(OCCCC)cc1`, the survivor count is, setting by setting: (dose: 100.0 mg/kg/injection, schedule: Q01DX010 (ip), vehicle: saline) 6 of 6; (dose: 200.0 mg/kg/injection, schedule: Q01DX010 (ip), vehicle: saline) 3 of 6; (dose: 400.0 mg/kg/injection, schedule: Q01DX010 (ip), vehicle: saline) 0 of 6.
Consider `C1CN1c1nc(N2CC2)nc(N2CC2)n1`, for which the T/C is 136 % of control (dose: 0.12 mg/kg/injection, schedule: Q01DX010 (ip), vehicle: water); 136 % of control (dose: 0.25 mg/kg/injection, schedule: Q01DX009 (ip), vehicle: saline); 145 % of control (dose: 1.0 mg/kg/injection, schedule: Q01DX009 (ip), vehicle: saline). Further, the survivor count is listed as 3 of 6 (dose: 0.2 mg/kg/injection, schedule: Q01DX009 (ip), vehicle: saline); 6 of 6 (dose: 1.0 mg/kg/injection, schedule: Q01DX010 (ip), vehicle: saline); 2 of 6 (dose: 1.6 mg/kg/injection, schedule: Q01DX009 (ip), vehicle: saline); 3 of 6 (dose: 3.2 mg/kg/injection, schedule: Q01DX009 (ip), vehicle: saline).
For the compound `ICC1(CI)CCCCC1`, the T/C (dose: 400.0 mg/kg/injection, schedule: Q01DX001 (ip), vehicle: saline with Tween-80) is 128 % of control.
With `CC(=O)/C(=C\c1ccc(Cl)c(Cl)c1)C(=O)c1ccccc1`, the survivor count (dose: 400.0 mg/kg/injection, schedule: Q04DX003 (ip), vehicle: other) is 6 of 6.
For the compound `O=C(/C=C/c1ccc(OCc2ccccc2)cc1)c1cccs1`, under setting [7], the survivor count is 5 of 6.
For the compound `O=c1c2cccc3cccc(c32)c2nc3ccccc3n12`, the T/C (dose: 9.0 mg/kg/injection, schedule: Q01DX009 (ip), vehicle: saline with Tween-80) was 125 % of control.
For the compound `O=C1C(Cl)=C(Sc2nc3ccccc3s2)C(=O)c2ccccc21`, the survivor count (dose: 100.0 mg/kg/injection, schedule: Q01DX005 (ip), vehicle: saline with Tween-80) is 0 of 5 and the survivor count (dose: 200.0 mg/kg/injection, schedule: Q01DX005 (ip), vehicle: saline with Tween-80) is given as 0 of 5.
For the compound `Cc1cc(C)c(-c2c(C)cc(C)c(C(=O)c3ccc([N+](=O)[O-])cc3)c2C)c(C)c1C(=O)c1ccc([N+](=O)[O-])cc1`, the survivor count by setting is: under setting [6], 6 of 6; (dose: 25.0 mg/kg/injection, schedule: Q01DX009 (ip), vehicle: Klucel (hydroxypropylcellulose) (HPC)) 6 of 6.
